Source: PMC8897422
No constants are given. Whether binding was seen depends on the method and setting. Binding seen in cells or lysates may run through a third protein.

The chains behind the UniProt entries cited, without tags or fusion partners.
UniProt O14744: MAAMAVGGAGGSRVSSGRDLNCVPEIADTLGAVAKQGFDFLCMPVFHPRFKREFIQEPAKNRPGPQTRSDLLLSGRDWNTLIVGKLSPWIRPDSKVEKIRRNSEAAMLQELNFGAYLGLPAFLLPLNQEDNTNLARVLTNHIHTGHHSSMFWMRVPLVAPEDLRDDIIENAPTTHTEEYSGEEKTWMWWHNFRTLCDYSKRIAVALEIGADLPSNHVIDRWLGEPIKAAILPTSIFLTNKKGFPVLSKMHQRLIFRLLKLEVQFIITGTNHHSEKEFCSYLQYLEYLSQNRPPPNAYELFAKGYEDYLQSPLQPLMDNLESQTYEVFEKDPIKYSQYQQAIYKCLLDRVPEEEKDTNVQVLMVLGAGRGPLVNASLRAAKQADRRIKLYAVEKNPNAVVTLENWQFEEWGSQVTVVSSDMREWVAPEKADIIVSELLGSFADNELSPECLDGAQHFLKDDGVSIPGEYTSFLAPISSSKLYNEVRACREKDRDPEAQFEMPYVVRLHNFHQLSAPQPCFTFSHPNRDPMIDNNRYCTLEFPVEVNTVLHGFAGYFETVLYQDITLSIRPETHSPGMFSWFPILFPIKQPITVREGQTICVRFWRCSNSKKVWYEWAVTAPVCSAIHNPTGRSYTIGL

T1: Unc-51 like autophagy activating kinase 1 (ULK1), endogenous (human (endogenous in LN229, Huh7 and HOK)) (UniProt O75385)
T1 sequence: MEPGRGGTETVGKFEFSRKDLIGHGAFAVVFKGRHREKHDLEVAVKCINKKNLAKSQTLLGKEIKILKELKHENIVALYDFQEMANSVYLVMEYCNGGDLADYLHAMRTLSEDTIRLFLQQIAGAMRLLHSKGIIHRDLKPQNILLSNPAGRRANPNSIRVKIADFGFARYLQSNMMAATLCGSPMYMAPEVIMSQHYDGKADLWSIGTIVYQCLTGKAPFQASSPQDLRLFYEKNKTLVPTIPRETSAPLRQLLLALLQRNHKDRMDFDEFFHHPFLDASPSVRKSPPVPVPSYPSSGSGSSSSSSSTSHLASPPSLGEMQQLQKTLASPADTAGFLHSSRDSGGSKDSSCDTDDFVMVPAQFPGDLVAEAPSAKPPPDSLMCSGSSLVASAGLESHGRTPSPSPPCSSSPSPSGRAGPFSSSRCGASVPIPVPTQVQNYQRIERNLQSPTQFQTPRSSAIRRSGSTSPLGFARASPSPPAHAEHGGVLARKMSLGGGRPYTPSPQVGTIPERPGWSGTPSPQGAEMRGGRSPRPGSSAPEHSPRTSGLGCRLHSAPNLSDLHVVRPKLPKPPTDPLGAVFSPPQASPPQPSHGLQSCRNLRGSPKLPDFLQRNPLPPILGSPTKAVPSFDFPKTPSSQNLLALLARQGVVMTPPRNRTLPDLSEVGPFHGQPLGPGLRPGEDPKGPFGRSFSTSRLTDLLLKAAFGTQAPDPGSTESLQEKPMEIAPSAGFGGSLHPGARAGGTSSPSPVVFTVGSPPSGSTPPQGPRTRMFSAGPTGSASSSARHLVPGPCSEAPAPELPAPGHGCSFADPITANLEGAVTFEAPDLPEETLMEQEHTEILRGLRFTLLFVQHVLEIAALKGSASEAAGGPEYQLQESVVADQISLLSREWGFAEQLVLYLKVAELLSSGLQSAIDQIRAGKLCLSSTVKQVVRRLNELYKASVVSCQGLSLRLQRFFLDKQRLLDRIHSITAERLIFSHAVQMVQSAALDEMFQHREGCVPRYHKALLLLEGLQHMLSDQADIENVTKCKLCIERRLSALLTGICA

B1: ULK2, endogenous (protein, UniProt Q8IYT8 1-1036)
chain: MEVVGDFEYSKRDLVGHGAFAVVFRGRHRQKTDWEVAIKSINKKNLSKSQILLGKEIKILKELQHENIVALYDVQELPNSVFLVMEYCNGGDLADYLQAKGTLSEDTIRVFLHQIAAAMRILHSKGIIHRDLKPQNILLSYANRRKSSVSGIRIKIADFGFARYLHSNMMAATLCGSPMYMAPEVIMSQHYDAKADLWSIGTVIYQCLVGKPPFQANSPQDLRMFYEKNRSLMPSIPRETSPYLANLLLGLLQRNQKDRMDFEAFFSHPFLEQGPVKKSCPVPVPMYSGSVSGSSCGSSPSCRFASPPSLPDMQHIQEENLSSPPLGPPNYLQVSKDSASTSSKNSSCDTDDFVLVPHNISSDHSCDMPVGTAGRRASNEFLVCGGQCQPTVSPHSETAPIPVPTQIRNYQRIEQNLTSTASSGTNVHGSPRSAVVRRSNTSPMGFLRPGSCSPVPADTAQTVGRRLSTGSSRPYSPSPLVGTIPEQFSQCCCGHPQGHDSRSRNSSGSPVPQAQSPQSLLSGARLQSAPTLTDIYQNKQKLRKQHSDPVCPSHTGAGYSYSPQPSRPGSLGTSPTKHLGSSPRSSDWFFKTPLPTIIGSPTKTTAPFKIPKTQASSNLLALVTRHGPAEEQSKDGNEPRECAHCLLVQGSERQRAEQQSKAVFGRSVSTGKLSDQQGKTPICRHQGSTDSLNTERPMDIAPAGACGGVLAPPAGTAASSKAVLFTVGSPPHSAAAPTCTHMFLRTRTTSVGPSNSGGSLCAMSGRVCVGSPPGPGFGSSPPGAEAAPSLRYVPYGASPPSLEGLITFEAPELPEETLMEREHTDTLRHLNVMLMFTECVLDLTAMRGGNPELCTSAVSLYQIQESVVVDQISQLSKDWGRVEQLVLYMKAAQLLAASLHLAKAQIKSGKLSPSTAVKQVVKNLNERYKFCITMCKKLTEKLNRFFSDKQRFIDEINSVTAEKLIYNCAVEMVQSAALDEMFQQTEDIVYRYHKAALLLEGLSRILQDPADIENVHKYKCSIERRLSALCHSTATV
B2: KDM4E, endogenous (enzyme, UniProt B2RXH2 1-506)
chain: MKSVHSSPQNTSHTIMTFYPTMEEFADFNTYVAYMESQGAHQAGLAKVIPPKEWKARQMYDDIEDILIATPLQQVTSGQGGVFTQYHKKKKAMRVGQYRRLANSKKYQTPPHQNFADLEQRYWKSHPGNPPIYGADISGSLFEESTKQWNLGHLGTILDLLEQECGVVIEGVNTPYLYFGMWKTTFAWHTEDMDLYSINYLHFGEPKTWYVVPPEHGQHLERLARELFPDISRGCEAFLRHKVALISPTVLKENGIPFNCMTQEAGEFMVTFPYGYHAGFNHGFNCAEAINFATPRWIDYGKMASQCSCGESTVTFSMDPFVRIVQPESYELWKHRQDLAIVEHTEPRVAESQELSNWRDDIVLRRAALGLRLLPNLTAQCPTQPVSSGHCYNPKGCGTDAVPGSAFQSSAYHTQTQSLTLGMSARVLLPSTGSWGSGRGRGRGQGQGRGCSRGRGHGCCTRELGTEEPTVQPASKRRLLMGTRSRAQGHRPQLPLANDLMTNLSL

What was measured:
[1] = molecular target: protein arginine methyltransferase 5 (PRMT5), endogenous (human (endogenous in LN229, Huh7 and HOK)) (UniProt O14744); assay: co-IP; immunoprecipitation with an anti-PRMT5 antibody from lysates of LN229, Huh7 or HOK cells, normoxia or 1% oxygen for 12 h; overnight at 4 °C, protein A or G agarose, washed 3 times with lysis buffer (0.1% SDS, 1% Triton X-100, 150 mM NaCl); immunoblot
[2] = molecular target: T1, Unc-51 like autophagy activating kinase 1 (ULK1), endogenous (human (endogenous in LN229, Huh7 and HOK)); assay: co-IP; immunoprecipitation with an anti-ULK1 antibody from lysates of LN229, Huh7 or HOK cells cultured in normoxia; overnight at 4 °C, protein A or G agarose, washed 3 times with lysis buffer (0.1% SDS, 1% Triton X-100, 150 mM NaCl); immunoblot

Row | Binder | binding [1] | binding [2]
1 | B1 | no binding | 
2 | B2 |  | no binding
